Source: patent US9458499B2, “Nucleic acid binding dyes and uses therefor” (PROMEGA CORPORATION, priority 2009, dated 2016)
Structures can show the parent of a compound that is named as a salt.

System: human gDNA, Chemokine (C-C motif) ligand 18 amplicon
Assay: qPCR amplification reactions with dye: standard curve and total fluorescence analysis
Format: biochemical
Settings: for slope of qPCR standard curve / y-intercept of qPCR standard curve: normalized to ROX, 45 cycles; for FM (maximum fluorescence): 100 ng target, cycle 45; for Bds=FM:Fi (brightness factor): FM at 45 cycles relative to Fi of NTC at cycle 1; for Fi (initial background fluorescence): NTC at cycle 1; for FB (background fluorescence factor): inverse of Bds, % of total double stranded fluorescence

## CCCN(CCCN(C)C)c1cc(/C=C2\Sc3cccc4c3N2CCC4)c2ccccc2[n+]1Cc1ccccc1 [PBI 3677, 1-benzyl-4-((5,6-dihydrothiazolo[5,4,3-ij]quinolin-2(4H)-ylidene)methyl)-2-((3-(dimethylamino)propyl)(propyl)amino)quinolinium trifluoroacetate]
  slope of qPCR standard curve: −3.35
  y-intercept of qPCR standard curve: 26.89

## CCCN(CCCN(C)C)c1cc(/C=C2/Sc3ccccc3N2C)c2ccccc2[n+]1-c1ccccc1 [SYBR Green 1, reference compound]
  FM (maximum fluorescence): 9.9e5
  Bds=FM:Fi (brightness factor): 12.7
  Fi (initial background fluorescence): 7.8e4
  FB (background fluorescence factor): 7.9%

## CCCN(CCCN(C)C)C1=C/C(=C\c2sc3cccc4c3[n+]2CCC4)c2ccccc2N1c1ccccc1 [PBI 3654, 1-((2-((3-(Dimethylamino)propyl)(propyl)amino)-1-phenylquinolin-4(1H)-ylidene)methyl)-7,8-dihydro-6H-thiazolo[5,4,3-ij]quinolin-9-ium]
  FM (maximum fluorescence): 1.05e6
  Bds=FM:Fi (brightness factor): 27.7
  Fi (initial background fluorescence): 3.8e4
  FB (background fluorescence factor): 3.6%
  slope of qPCR standard curve: 3.32
  y-intercept of qPCR standard curve: 28.34
